Results are given in words; binding and its absence hold for the method and conditions named.
Target: C. elegans SAS-6 N-terminal domain fragment with I154E (ceN[I154E]) (C. elegans) (UniProt O62479)
Assay: AUC; sedimentation velocity, 20°C, 300 μM protein; 20 mM Tris-HCl pH 7.5, 150 mM NaCl, 2 mM TCEP, 1% glycerol; both purified

- binding: no binding (tested: 300 μM)
B1: C. elegans SAS-6 N-terminal domain fragment with I154E (ceN[I154E]) (domain or fragment, UniProt O62479 1-168)
chain: MTSKIALFDQTLIASLLQPLSLNQPDFKAYKTKVKLKISEQRNETSGEKELKFEISRSDDFEFLFSETLNNEKYQILARDHDLTVDFDAFPKVIIQHLLCKNIVKNLEEDGEVDARKKAGYHSIADPGKPTEINIILDAEKNFCSFELFSKTPESKGKIFSIKLHAVR
